Results published in CN108635579A.
No constants are given. Whether binding was seen depends on the method and setting. Binding can be weak; no strength is given.

Tests used:
Assay in all cases: ELISA, antigen coated 50 ng/well, nanobody 100 ng/well, anti-Flag detection
[1] = target: VEGF
[2] = target: aFGF
[3] = target: KGF
[4] = target: TNFα
[5] = target: EGF

Measured: binding

B1: 抗bFGF纳米抗体 Nb1 (VHH)
VHH: LQESGGDLVQPGGSLRLSCEVSGSNFSNNDMGWYRQAPGKQREVVAGISSVGRTMYGDPVKGRFTISRDNAKNMVYLQMNRLKAKDTAVYYCHLYGDYRGTGFWGKGTQVTVSS
binds: all assays above

B2: 抗bFGF纳米抗体 Nb2 (VHH)
VHH: LQESGGDLVQPGGSLRLSCEVSGSNFSINDMGWYRQAPGKRREVVAGISSVGRAMYADPVKGRFTISRDNAKNMVYLQMNRLKPEDTAVYYCYLYGDYRGTGFWGKGTQVTVSS
binds: all assays above

B3: 抗bFGF纳米抗体 Nb3 (VHH)
VHH: LQESGGDLVQPGGSLRLSCEVSGSNFSINDMGWYRQAPGKRREVVAGISSVGRTMYADPVKGRFTISRDNAKNMVYLQMNRLKPEDTAVYYCHLYGDYRGTGFWGKGTQVTVSS
binds: all assays above

B4: 抗bFGF纳米抗体 Nb5 (VHH)
VHH: LQESGGGLVQAGGSLRLSCAASGRTFSSGAMGWFRQAPGKEPEFVATITWDGGTTYYADSVKGRYTISRDNAKNTVYLQMNDLKPEDTAVYSCAARSYSEAYYLIGSSDYNYWGQGTQVTVSS
binds: all assays above

B5: 抗bFGF纳米抗体 Nb6 (VHH)
VHH: LQESGGDLVQPGGSLRLSCEVSGSNFSINDMGWYRQAPGKRREVVAGISSVGRTMYGDPVKGRFTISRDNAKNMVYLQMNRLKPEDTAVYYCHLYGDYRGTGFWGKGTQVTVSS
binds: all assays above
